Reference: PubChem BioAssay AID686937 (Drosophila RNAi Screening Center, 2013)

Aim: 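Genes whose loss weakens secretory pathway function in fly cells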 (primary screen)
System: Drosophila S2 cells expressing secreted horseradish peroxidase
Reagents: long dsRNA against Drosophila genes
Duration: about 5.5 days (5 days dsRNA, then 12 h reporter induction)
Treatment: reporter expression induced after 5 days of dsRNA, read 12 h later; inducer not stated
Detection: 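Chemiluminescent measurement of peroxidase in the medium 12 h after reporter induction, following 5 days of dsRNA, given as a z-score per plate; higher means more secretion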
Reading the numbers: z-score: higher = more reporter secreted into medium
The deposit covers about 23,000 reagents; this is a random part of those with a known target gene and a result. 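Reduced-secretion tags in replicate 1 do not always agree with the z-scores; no criterion for assigning the tags was given.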 Not all columns of the deposit are shown. Reagent sequences are not shown. The record does not give: the amount of reagent.

After knock-down of CG15394 [DRSC00408], the record shows z-score, replicate 1 = 0.07.
FER [DRSC12735] scored z-score, replicate 1 = 0.03.
After knock-down of FER [DRSC16673], the screen gave z-score, replicate 1 = 0.33.
Silencing of CG14005 [DRSC02337] resulted in: z-score, replicate 1 = 0.31.
For Lim1 [DRSC17752], the entry reads z-score, replicate 1 = 0.4.
Lim1 [DRSC18677] scored z-score, replicate 1 = -0.1.
Depletion of sced [DRSC04990] came out at: z-score, replicate 1 = 0.29.
With knock-down of CG7330 [DRSC10813] the results were z-score, replicate 1 = 0.2.
After knock-down of CG7330 [DRSC10814], the record shows z-score, replicate 1 = 0.32.
Obp56i [DRSC05812] showed z-score, replicate 1 = 0.38.
Lkr [DRSC09754] scored z-score, replicate 1 = 0.35.
With knock-down of pb [DRSC12409], the record shows z-score, replicate 1 = 0.6.
Silencing of pb [DRSC12629] gave: z-score, replicate 1 = 0.12.
ND-ACP [DRSC08724] showed z-score, replicate 1 = 0.03.
Ac76E [DRSC09642] showed z-score, replicate 1 = 0.1.
Ac76E [DRSC09662] scored z-score, replicate 1 = 0.15.
Knock-down of Nepl14 [DRSC15631] came out at: z-score, replicate 1 = 0.07.
With knock-down of TfIIFalpha [DRSC12608], the record shows z-score, replicate 1 = -3.76.
Against lncRNA:CR40053 [DRSC20833], the entry reads z-score, replicate 1 = 0.03.
After knock-down of so [DRSC07693], the screen gave z-score, replicate 1 = 0.32.
Against CG8388 [DRSC07157] the deposit lists z-score, replicate 1 = -0.01.
Against Dnz1 [DRSC03317], the values are z-score, replicate 1 = 0.31.
After knock-down of TFAM [DRSC15552] the results were z-score, replicate 1 = 0.24.
Against CG10962 [DRSC18421], the entry reads z-score, replicate 1 = 0.36.
cpx [DRSC11999] showed z-score, replicate 1 = 0.41.
Silencing of mag [DRSC11787] gave: z-score, replicate 1 = 0.53.
Depletion of CG12609 [DRSC19473] came out at: z-score, replicate 1 = -0.08.
Knock-down of CG14589 [DRSC04866] gave: z-score, replicate 1 = 0.04.
Against CG40341 (retired record) [DRSC01767], the entry reads z-score, replicate 1 = -2.27.
Depletion of CG40341 (retired record) [DRSC03750] gave: z-score, replicate 1 = -1.9.
CR33294 [DRSC22950] gave z-score, replicate 1 = 0.27.
MFS9 [DRSC15560] showed z-score, replicate 1 = 0.27.
Depletion of wam [DRSC15171] came out at: z-score, replicate 1 = 0.25.
mRpL12 [DRSC10467] gave z-score, replicate 1 = 0.18.
After knock-down of CG2839 [DRSC00544] the results were z-score, replicate 1 = 0.42.
For CG7551 [DRSC10876] the deposit lists z-score, replicate 1 = 0.39.
CG33474 [DRSC05218] scored z-score, replicate 1 = 0.03.
CG32074 [DRSC22246] gave z-score, replicate 1 = -0.88.
sgl [DRSC21431] gave z-score, replicate 1 = 0.
Depletion of Ref2 [DRSC02563] gave: z-score, replicate 1 = 0.46.
CG12672 [DRSC19482] gave z-score, replicate 1 = 0.58.
Oatp33Ea [DRSC02859] showed z-score, replicate 1 = 0.21.
CG9154 [DRSC03150] showed z-score, replicate 1 = 0.26.
Against CG11368 [DRSC17778] the deposit lists z-score, replicate 1 = -0.11.
CG14071 [DRSC02374] scored z-score, replicate 1 = -0.15.
CG7741 [DRSC07035] scored z-score, replicate 1 = 0.44.
Silencing of ea [DRSC16939] resulted in: z-score, replicate 1 = 0.41.
Against CG4839 [DRSC02783], the values are z-score, replicate 1 = 0.53.
Depletion of CG4839 [DRSC02784] came out at: z-score, replicate 1 = 0.15.
For mms4 [DRSC06249], the entry reads z-score, replicate 1 = 0.39.
Silencing of CG11898 [DRSC14432] came out at: z-score, replicate 1 = -0.04.

Targets above whose gene name begins with A or a:
Ac76E [DRSC09642] → z-score, replicate 1: 0.1
Ac76E [DRSC09662] → z-score, replicate 1: 0.15
